No constants are given. Whether binding was seen depends on the method and setting.
How the values were obtained:
[1] = molecular target: Lig4 BRCT1 domain alone (S. pombe); assay: two-hybrid; Matchmaker system (Clontech), Lig4 and fragments as bait, Xrc4 as prey, AH109 strain; HIS3 and ADE2 reporters assessed on SD/-Ade/-His/-Leu/-Trp
[2] = molecular target: Lig4 BRCT2 domain alone (S. pombe); assay: as above

B1: Xrc4 (two-hybrid prey) (protein, UniProt Q92361 1-264)
chain: MKFFLSLKDFKGEKFVLRSELDESSAFLCAISPTCRYVLRDEIPWKRLQRNVTSESLTDELIVDLLCGRSESKHTLQLVVLENLCRIYINYVDPFPLRIAWFELEQQALKDHEHFDVLWECSHSIKDLALASMAQQKNELQKLMAYTEQLQEECKSRERKLIMKFADMIKNARNNEDNEDNHHINYEDESDVGTDEQKQQEGVNSSAVSDTDESAVSDEFMQIKEEFPMKALSASPTADASPESAGEDDSHRRSSHESSETVSE
binding [1]: no binding
binding [2]: no binding
